Here are results for three substances from publication doi:10.1101/2023.12.12.571289.

The chains behind the UniProt entries cited, without tags or fusion partners. Residues count along the entry.
UniProt P07996, residues 19-1170: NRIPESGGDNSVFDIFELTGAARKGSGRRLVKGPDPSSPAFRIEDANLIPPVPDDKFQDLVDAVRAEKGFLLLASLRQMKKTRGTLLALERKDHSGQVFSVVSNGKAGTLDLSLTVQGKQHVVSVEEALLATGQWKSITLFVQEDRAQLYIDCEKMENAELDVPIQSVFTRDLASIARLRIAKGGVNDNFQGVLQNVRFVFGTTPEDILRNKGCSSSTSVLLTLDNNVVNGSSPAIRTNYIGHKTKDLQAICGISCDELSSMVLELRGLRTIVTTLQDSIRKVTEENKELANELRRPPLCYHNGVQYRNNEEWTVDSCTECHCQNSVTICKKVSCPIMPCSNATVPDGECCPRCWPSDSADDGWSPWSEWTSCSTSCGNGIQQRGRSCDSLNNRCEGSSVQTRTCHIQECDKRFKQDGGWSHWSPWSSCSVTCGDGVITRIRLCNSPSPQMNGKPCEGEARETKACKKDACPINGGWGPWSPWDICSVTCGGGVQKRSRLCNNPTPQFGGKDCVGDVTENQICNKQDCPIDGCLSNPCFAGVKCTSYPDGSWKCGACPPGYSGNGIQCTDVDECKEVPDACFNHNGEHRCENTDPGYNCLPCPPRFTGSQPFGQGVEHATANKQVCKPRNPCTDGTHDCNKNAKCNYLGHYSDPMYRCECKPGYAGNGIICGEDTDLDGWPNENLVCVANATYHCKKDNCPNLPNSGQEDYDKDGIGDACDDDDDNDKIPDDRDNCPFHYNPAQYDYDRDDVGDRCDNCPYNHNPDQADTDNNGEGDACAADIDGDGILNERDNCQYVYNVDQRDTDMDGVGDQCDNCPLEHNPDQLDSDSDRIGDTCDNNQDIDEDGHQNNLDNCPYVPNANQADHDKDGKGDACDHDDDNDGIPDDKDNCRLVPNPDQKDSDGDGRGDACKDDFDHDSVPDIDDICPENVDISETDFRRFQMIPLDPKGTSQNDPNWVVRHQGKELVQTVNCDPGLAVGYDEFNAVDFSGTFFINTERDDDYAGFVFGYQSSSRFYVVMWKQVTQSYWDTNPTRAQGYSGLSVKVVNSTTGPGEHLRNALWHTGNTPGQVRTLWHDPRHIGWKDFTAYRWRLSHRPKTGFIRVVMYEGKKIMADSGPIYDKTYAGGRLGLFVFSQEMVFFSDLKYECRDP
UniProt P14780, residues 107-707: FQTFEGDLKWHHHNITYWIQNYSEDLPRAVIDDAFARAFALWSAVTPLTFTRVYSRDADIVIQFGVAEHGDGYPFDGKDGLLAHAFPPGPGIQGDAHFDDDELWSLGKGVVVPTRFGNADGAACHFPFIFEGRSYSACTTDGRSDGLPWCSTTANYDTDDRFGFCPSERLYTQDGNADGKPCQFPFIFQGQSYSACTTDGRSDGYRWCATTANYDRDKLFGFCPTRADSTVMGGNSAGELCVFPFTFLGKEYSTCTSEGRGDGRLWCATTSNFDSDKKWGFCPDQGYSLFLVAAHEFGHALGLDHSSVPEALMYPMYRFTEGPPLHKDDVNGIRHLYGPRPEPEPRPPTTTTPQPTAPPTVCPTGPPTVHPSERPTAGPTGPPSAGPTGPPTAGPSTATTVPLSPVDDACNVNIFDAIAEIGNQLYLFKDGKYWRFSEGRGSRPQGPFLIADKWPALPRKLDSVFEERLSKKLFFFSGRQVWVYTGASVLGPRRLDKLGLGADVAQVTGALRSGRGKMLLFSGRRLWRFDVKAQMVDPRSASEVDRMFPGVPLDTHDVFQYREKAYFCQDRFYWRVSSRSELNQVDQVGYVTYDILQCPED

Assay [1] has as its target T1, Extracellular Matrix Protein 1 (ECM1), endogenous in LX-2 HSCs (human (endogenous in LX-2)) (UniProt Q16610).
T1 sequence: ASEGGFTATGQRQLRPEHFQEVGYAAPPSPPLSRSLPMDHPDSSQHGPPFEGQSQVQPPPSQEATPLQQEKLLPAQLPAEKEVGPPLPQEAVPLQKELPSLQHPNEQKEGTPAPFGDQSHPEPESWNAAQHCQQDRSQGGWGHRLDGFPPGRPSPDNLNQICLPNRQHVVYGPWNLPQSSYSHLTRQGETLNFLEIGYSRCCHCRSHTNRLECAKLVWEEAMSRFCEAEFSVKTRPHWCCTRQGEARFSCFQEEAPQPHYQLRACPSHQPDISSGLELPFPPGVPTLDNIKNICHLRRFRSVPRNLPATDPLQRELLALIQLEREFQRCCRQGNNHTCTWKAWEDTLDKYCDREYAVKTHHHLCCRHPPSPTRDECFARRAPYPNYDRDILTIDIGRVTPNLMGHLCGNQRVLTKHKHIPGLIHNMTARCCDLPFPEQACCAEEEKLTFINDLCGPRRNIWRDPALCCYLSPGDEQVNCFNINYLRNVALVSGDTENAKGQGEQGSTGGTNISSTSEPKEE
Description: co-IP.

A further assay addresses T2, recombinant ECM1 (rECM1) (UniProt Q16610).
T2 sequence: T1 sequence
Description: pull-down.

No constants are given. Whether binding was seen depends on the method and setting. For part of these data: Binding seen in cells or lysates may run through a third protein. Some entries that bind do so weakly or less than the wild type.

“Thrombospondin 1 (TSP-1), endogenous in LX-2 HSCs (from UniProt P07996 19-1170)”: the binding result in assay [1] was “binds”.

Regarding “matrix metalloproteinase-9 (MMP-9), mature form, endogenous in LX-2 HSCs (from UniProt P14780 107-707) (enzyme)”, the binding entry in assay [1] was “binds”.

As to “recombinant Thrombospondin 1 (TSP-1) (from UniProt P07996 19-1170)”, in the assay with recombinant ECM1 (rECM1), the binding result is listed as “binds”.
